Data from patent US12059682B2, “Method for isolation and morphological analysis of cells” (EzDiaTech Inc., priority 2018, dated 2024).
Values after ≈ are worked out from the molar mass of the structure shown.

Assays:
[1] = system: Escherichia coli (E. coli) ATCC 25922; assay: Rapid antibiotic susceptibility test with microwell-patterned hydrogel in 96 well plate, time-lapse imaging; type: cell-based; conditions: ATCC25922, 4 h, hydrogel device, images every hour for four hours, 37° C., read-out: minimum inhibitory concentration (MIC)
Protocol: (§1) FIG. 2 is a schematic diagram illustrating a technique for dissociating cell colonies into cells at the level of individual cells and continuously observing the morphological changes of the isolated single cells by utilizing a hydrogel structure according to one embodiment of the present disclosure. Referring to (a) of FIG. 2, a conventional 96 well plate is prepared, and thereafter, a dried microwell-patterned hydrogel is inserted into each well. Referring next to (b) of FIG. 2, a cell culture medium containing bacterial cells, nutrients and antibiotics is introduced into each well containing the dry microwell-patterned hydrogel. At the initial stage of introduction, the bottom microwells of the microwell-patterned hydrogel are not yet seated on the base of the well and the microwell-patterned hydrogel is slightly floating. Thus, the bacterial cells are free to move in and out of each microwell pattern. […]
(§2) In the case of the Streptomyces atratus (spore-type actinomycetes) cultures, the final cell concentration of the wells was controlled at 7.5×10^7 CFU/mL with tryptic soy broth (TSB, Sparks, MD) and growth was at 28° C. […] After that, 227.5 μL (91% v/v) of Mueller-Hinton broth (MHB, Fluka Analytical), 2.5 μL (1% v/v) of the antibiotics, and 20 μL (8% v/v) of bacterial cells were mixed and growth was monitored at 37° C. […]

[2] = system: Staphylococcus aureus (S. aureus) ATCC 29213; assay: as above; type: cell-based; conditions: ATCC29213, 4 h, hydrogel device, images every hour for four hours, 37° C., read-out: minimum inhibitory concentration (MIC)
Protocol: as §1, §2

MIC [1]: 4 µg/mL (≈ 11.4 µM) | MIC [2]: 2 µg/mL (≈ 5.72 µM)
SMILES: CC1(C)S[C@@H]2[C@H](NC(=O)[C@H](N)c3ccccc3)C(=O)N2[C@H]1C(=O)O [ampicillin]
